Results deposited as PubChem BioAssay AID602196 (INSERM, 2012)
Aim: 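Modifiers of cisplatin sensitivity in A549 cells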. System: human A549 lung cancer cells. Reagents: siRNA pair against human genes. Time to read-out: 48 h transfection before cisplatin; time from cisplatin to read-out not stated. Treatment: cisplatin at a dose killing half of control-siRNA cells; exact dose and duration not given. Detection: 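Cisplatin cell death as a shift from the 50% death seen with control siRNA; siRNAs toxic or growth-blocking alone scored 0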. Direction: two-siRNA summed score (-2 to +2): higher = both siRNAs protect from cisplatin killing; -2 means both sensitise; mean protection from cisplatin (shift in death) and protection from cisplatin (shift in death), siRNA C and protection from cisplatin (shift in death), siRNA D: higher = protection from cisplatin killing. Call rule: 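siRNAs harmful alone (LDH or WST-1) get 0; others get +1 for less and -1 for more cisplatin killing; genes are active when the two siRNAs give the same sign, summing to ±2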. Meaning of the calls: active = both siRNAs shift cisplatin killing the same way; inactive = no consistent shift, or siRNA harmful alone.
Here is one part, drawn at random, of about 23,000 deposited reagents. 455 of all reagents (2%) were called active. 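Active includes both protection and sensitisation; some change values fall well beyond the stated -50 to +50 range.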 Not given: the amount of reagent.

gene	two-siRNA summed score (-2 to +2)	mean protection from cisplatin (shift in death) (%)	protection from cisplatin (shift in death), siRNA C (%)	protection from cisplatin (shift in death), siRNA D (%)	outcome
AGRN	0	10.9	13.5	8.4	inactive
LOC442099	0	6.7	5.9	7.5	inactive
NUTM1	0	18.5	4.1	33	inactive
LOC441181	0	1.3	4.3	-1.8	inactive
TNFSF10	0	-7.3	18.3	-33	inactive
SLC25A31	0	7.2	3.4	11.1	inactive
COXFA4L3	0	6.5	10.2	2.8	inactive
GCM2	0	1.9	10.2	-6.3	inactive
SOX21	0	8.7	11.5	5.9	inactive
SPACA3	1	9.6	15.4	3.8	inactive
KCTD6	0	5.2	4.2	6.3	inactive
RBSN	0	-6.8	-11.3	-2.4	inactive
PPCDC	0	1.8	8.4	-4.9	inactive
TSSK2	0	1.7	5.6	-2.1	inactive
LINC01141	0	-2.7	5.4	-10.7	inactive
KIAA1786	0	3.5	14.8	-7.7	inactive
ACSBG1	0	7	11.6	2.3	inactive
PRKCSH	0	-15.6	-28	-3.3	inactive
LOC390896	1	8.4	18.9	-2.2	inactive
DCAF4	0	2.3	-2.7	7.2	inactive
UBA7	0	10.6	8.7	12.6	inactive
OMP	0	-6.7	-31.4	18	inactive
INTS6L	0	4.5	3	6.1	inactive
